Source: the supplement of paper PMC12823440, “Inhibitors supercharge kinase turnover through native proteolytic circuits” (Nature, 2025)
Structures can show the parent of a compound that is named as a salt. This is one part of the list. Hit calls seldom repeat between salt and free forms of one compound.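 Kinases were expressed as nanoluciferase fusions in K562 cells and luminescence was read every 4 h between 2 and 18 h as percent of control, DMSO set to 100% and a positive control to 0%. A time point counts as decreased when the signal drops significantly (2 sigma). The hit call is the authors' own, does not follow from the count of time points alone, and its rule is not shown.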

The chains behind the UniProt entries cited, without tags or fusion partners. Where a name states a change or a piece, a line headed by the entry shows the natural chain unless it says otherwise.
UniProt Q9UQM7, whole entry: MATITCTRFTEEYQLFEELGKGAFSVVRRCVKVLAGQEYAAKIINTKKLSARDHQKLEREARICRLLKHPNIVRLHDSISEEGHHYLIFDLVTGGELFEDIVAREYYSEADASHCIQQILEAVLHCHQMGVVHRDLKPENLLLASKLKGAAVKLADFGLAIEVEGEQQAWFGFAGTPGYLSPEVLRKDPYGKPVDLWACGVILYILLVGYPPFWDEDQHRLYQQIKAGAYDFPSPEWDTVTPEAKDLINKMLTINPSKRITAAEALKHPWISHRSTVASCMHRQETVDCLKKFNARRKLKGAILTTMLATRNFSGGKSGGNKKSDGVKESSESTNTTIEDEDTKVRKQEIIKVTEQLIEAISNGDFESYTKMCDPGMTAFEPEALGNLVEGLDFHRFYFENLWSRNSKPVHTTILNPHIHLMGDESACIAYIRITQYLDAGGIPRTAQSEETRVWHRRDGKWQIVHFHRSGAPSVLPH
UniProt Q13555: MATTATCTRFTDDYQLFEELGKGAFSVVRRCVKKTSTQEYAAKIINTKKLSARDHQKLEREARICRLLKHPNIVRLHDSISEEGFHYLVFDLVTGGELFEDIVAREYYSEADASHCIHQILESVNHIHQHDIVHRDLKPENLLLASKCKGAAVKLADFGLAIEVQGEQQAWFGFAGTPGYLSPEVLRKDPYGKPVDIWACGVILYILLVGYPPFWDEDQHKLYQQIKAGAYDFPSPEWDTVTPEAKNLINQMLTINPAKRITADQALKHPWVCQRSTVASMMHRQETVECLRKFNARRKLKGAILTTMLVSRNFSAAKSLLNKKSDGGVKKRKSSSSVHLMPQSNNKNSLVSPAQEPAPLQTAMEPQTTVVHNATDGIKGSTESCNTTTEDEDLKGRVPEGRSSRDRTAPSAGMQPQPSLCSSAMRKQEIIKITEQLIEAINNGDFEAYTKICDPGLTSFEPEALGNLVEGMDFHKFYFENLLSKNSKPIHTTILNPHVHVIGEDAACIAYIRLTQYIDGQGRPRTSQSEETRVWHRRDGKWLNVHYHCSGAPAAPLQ
UniProt Q15131: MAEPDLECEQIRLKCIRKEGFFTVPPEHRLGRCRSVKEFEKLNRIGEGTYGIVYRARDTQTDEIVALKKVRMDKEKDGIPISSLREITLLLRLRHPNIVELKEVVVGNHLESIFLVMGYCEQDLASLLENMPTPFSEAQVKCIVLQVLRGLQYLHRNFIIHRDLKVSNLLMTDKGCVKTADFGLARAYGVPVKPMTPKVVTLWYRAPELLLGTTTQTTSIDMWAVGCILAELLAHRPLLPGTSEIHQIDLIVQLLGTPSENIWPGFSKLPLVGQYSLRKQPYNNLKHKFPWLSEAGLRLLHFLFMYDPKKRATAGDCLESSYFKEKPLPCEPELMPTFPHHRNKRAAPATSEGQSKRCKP
UniProt Q00526: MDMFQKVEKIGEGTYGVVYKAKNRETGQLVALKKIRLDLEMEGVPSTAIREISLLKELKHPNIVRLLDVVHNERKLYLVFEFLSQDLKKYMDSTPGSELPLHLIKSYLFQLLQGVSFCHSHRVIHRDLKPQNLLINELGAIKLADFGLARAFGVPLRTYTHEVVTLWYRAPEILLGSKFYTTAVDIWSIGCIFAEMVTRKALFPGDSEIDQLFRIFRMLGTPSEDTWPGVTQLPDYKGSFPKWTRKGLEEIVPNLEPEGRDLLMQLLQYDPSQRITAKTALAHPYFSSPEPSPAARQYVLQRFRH
UniProt Q00535, whole entry, looked up: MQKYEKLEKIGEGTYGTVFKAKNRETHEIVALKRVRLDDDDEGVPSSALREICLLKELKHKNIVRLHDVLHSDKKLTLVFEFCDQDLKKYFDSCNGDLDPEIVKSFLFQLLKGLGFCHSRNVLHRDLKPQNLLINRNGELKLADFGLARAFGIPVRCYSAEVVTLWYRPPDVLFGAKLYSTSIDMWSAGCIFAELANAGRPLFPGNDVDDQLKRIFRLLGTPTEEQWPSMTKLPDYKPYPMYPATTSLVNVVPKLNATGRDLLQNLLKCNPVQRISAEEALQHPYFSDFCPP
UniProt Q00534, whole entry: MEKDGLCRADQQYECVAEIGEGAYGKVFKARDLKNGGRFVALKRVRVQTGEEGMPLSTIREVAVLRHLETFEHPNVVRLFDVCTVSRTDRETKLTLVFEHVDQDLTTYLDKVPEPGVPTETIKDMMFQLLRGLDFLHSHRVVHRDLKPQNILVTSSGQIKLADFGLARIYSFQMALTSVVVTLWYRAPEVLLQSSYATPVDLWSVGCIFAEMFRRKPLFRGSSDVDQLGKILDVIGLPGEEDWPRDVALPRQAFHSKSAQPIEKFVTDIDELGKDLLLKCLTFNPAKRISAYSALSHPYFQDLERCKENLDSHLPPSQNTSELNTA
UniProt O96017, whole entry: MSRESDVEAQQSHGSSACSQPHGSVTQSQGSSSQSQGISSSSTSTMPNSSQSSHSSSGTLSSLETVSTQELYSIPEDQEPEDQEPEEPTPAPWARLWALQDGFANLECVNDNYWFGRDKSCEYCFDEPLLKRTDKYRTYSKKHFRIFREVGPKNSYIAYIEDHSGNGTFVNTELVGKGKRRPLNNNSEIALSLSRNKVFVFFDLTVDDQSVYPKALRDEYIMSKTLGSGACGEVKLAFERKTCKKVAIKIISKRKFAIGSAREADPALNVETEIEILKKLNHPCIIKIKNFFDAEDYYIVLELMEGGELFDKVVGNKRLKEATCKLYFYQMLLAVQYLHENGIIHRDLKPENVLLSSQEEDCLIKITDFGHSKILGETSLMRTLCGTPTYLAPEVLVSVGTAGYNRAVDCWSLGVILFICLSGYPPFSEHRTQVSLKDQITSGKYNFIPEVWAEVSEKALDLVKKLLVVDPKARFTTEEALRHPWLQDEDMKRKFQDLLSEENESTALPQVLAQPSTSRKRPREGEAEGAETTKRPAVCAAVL
UniProt P07333, whole entry: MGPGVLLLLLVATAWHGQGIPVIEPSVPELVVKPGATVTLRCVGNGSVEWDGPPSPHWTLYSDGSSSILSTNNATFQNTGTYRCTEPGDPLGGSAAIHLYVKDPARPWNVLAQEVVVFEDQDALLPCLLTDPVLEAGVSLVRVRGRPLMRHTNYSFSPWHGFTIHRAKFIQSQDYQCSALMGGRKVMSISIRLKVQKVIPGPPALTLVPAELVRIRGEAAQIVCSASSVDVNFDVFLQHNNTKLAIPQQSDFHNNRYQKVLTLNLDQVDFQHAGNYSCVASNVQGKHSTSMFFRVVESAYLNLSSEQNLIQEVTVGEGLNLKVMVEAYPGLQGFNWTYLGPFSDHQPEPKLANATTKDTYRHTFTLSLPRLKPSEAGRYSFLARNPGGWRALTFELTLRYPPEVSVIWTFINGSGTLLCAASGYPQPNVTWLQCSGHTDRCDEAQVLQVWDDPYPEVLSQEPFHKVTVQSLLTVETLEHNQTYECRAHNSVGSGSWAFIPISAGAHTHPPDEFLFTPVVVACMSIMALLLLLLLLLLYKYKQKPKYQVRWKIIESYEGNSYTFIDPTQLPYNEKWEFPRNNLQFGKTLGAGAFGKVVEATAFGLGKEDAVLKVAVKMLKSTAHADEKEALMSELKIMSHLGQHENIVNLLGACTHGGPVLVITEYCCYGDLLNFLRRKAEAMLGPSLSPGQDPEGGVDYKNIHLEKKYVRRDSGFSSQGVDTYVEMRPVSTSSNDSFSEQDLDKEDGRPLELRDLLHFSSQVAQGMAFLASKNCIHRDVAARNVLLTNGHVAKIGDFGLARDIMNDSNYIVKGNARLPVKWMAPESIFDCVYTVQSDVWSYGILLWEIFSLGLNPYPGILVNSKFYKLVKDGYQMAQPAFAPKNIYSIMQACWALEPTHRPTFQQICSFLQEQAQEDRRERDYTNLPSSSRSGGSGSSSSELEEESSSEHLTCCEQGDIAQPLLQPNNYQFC
UniProt P41240: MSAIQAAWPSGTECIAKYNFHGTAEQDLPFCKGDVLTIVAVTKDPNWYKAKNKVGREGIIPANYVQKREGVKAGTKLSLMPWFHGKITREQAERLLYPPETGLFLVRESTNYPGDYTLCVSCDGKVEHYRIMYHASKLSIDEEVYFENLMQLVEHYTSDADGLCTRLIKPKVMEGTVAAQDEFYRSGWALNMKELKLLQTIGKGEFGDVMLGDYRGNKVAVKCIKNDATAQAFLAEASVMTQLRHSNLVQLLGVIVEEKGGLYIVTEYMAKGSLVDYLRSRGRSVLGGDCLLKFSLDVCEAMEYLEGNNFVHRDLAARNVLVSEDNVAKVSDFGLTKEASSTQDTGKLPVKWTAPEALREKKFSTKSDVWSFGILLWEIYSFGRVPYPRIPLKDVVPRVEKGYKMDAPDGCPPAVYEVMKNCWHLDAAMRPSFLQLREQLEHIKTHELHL
UniProt P48729: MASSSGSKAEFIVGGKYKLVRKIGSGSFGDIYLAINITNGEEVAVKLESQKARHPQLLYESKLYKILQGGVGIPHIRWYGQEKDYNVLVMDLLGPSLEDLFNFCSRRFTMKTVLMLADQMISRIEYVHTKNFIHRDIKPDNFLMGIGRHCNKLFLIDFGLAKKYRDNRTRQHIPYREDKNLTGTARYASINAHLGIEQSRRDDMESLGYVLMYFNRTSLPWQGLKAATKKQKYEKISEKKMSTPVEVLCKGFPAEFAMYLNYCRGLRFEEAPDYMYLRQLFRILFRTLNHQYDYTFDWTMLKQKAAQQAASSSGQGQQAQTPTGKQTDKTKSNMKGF
UniProt P48730: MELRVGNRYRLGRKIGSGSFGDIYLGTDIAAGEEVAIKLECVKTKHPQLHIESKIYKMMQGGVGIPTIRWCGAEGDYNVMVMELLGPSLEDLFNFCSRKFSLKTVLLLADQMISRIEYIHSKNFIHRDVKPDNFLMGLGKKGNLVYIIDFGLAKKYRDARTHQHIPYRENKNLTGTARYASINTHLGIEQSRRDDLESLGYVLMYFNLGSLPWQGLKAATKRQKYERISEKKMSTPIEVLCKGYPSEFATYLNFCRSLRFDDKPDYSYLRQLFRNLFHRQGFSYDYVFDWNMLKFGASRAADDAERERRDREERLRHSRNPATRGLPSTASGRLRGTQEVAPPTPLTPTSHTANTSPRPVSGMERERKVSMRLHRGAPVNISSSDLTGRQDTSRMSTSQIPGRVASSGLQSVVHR
UniProt Q9Y463, whole entry, looked up: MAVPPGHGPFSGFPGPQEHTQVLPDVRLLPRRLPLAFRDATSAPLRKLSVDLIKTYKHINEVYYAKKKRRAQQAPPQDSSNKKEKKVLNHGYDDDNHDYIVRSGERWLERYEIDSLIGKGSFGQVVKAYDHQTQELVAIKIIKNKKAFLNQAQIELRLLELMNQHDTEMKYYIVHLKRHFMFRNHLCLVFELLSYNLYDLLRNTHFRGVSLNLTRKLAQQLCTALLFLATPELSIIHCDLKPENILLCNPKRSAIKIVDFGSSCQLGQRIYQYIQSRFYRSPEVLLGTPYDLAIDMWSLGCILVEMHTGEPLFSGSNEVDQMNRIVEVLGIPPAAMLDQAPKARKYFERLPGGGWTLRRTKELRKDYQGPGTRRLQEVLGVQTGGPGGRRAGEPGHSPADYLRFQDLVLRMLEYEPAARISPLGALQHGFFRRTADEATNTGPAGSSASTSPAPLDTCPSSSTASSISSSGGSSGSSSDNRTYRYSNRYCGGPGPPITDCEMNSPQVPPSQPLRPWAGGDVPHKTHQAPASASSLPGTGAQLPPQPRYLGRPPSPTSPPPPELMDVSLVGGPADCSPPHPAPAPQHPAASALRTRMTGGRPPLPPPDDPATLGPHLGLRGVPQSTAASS
UniProt Q92630: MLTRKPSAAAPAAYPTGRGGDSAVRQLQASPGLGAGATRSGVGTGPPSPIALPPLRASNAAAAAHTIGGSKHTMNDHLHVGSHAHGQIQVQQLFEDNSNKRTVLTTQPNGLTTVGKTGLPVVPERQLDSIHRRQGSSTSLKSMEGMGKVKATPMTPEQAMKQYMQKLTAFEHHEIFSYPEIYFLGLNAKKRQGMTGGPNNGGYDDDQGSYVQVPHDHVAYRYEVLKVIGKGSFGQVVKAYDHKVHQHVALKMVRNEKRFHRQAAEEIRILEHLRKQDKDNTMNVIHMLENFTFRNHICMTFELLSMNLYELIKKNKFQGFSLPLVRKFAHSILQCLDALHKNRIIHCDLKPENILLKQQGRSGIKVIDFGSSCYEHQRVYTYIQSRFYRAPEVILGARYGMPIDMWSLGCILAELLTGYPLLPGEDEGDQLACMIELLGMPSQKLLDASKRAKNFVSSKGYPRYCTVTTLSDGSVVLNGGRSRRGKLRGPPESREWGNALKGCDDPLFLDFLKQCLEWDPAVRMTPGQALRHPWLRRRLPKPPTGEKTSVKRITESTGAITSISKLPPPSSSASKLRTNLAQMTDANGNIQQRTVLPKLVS

Assays:
Assay in all cases: number of time points (of 5) at which kinase-Nluc abundance scored as decreased, DMSO-normalised (count); higher = more persistent destabilization
Conditions in all cases: K562; 2-18 h
CAMK2A = CAMK2A (UniProt Q9UQM7)
CAMK2G = CAMK2G (UniProt Q13555)
CDK10 = CDK10 (UniProt Q15131)
CDK2 = CDK2 (UniProt P24941)
CDK3 = CDK3 (UniProt Q00526)
CDK5 = CDK5 (UniProt Q00535)
CDK6 = CDK6 (UniProt Q00534)
CHEK2 = CHEK2 (UniProt O96017)
CSF1R = CSF1R (UniProt P07333)
CSK = CSK (UniProt P41240)
CSNK1A1 = CSNK1A1 (UniProt P48729)
CSNK1D = CSNK1D (UniProt P48730)
DDR1 = DDR1 (UniProt Q08345)
DYRK1B = DYRK1B (UniProt Q9Y463)
DYRK2 = DYRK2 (UniProt Q92630)
EGFR = EGFR (UniProt P00533)
EGFR_G719S = EGFR_G719S (UniProt P00533)
EGFR_G719S_T790M = EGFR_G719S_T790M (UniProt P00533)
EGFR_L718V = EGFR_L718V (UniProt P00533)
EGFR_L858R = EGFR_L858R (UniProt P00533)

Structure (SMILES)	number of time points (CAMK2A)	number of time points (CAMK2G)	number of time points (CDK10)	number of time points (CDK2)	number of time points (CDK3)	number of time points (CDK5)	number of time points (CDK6)	number of time points (CHEK2)	number of time points (CSF1R)	number of time points (CSK)	number of time points (CSNK1A1)	number of time points (CSNK1D)	number of time points (DDR1)	number of time points (DYRK1B)	number of time points (DYRK2)	number of time points (EGFR)	number of time points (EGFR_G719S)	number of time points (EGFR_G719S_T790M)	number of time points (EGFR_L718V)	number of time points (EGFR_L858R)
CCCS(=O)(=O)Nc1ccc(F)c(C(=O)c2c[nH]c3ncc(-c4ccc(Cl)cc4)cc23)c1F [Vemurafenib] (10 µM)	0	0	0	0	0	0	0	0	0	0	2	1	1	0	0	0	0	0	0	0
C[C@@H](c1ccc(F)cc1)n1nnc2cnc3ccc(-c4ccc5ocnc5c4)cc3c21 (10 µM)	0	0	0	0	0	0	0	0	0	0	0	0	0	0	0	0	0	0	0	0
COc1cc2ncc(-c3ccccc3)nc2cc1OC [Tyrphostin AG1296] (10 µM)	0	0	0	0	0	0	0	0	0	0	0	0	0	0	0	0	0	0	0	0
NC(=O)c1ccc2[nH]ccc2c1 (10 µM)	0	0	0	0	0	0	0	0	0	0	0	0	0	0	0	0	0	0	0	0
Cc1cc(Nc2ncnc3ccc(NC4=NC(C)(C)CO4)cc23)ccc1Oc1ccn2ncnc2c1 [Tucatinib (hemiethanolate)] (2.5 µM)	0	0	0	0	0	0	0	0	0	0	0	0	0	0	0	0	0	0	0	0
CCOC(=O)N1CCN(C(=O)[C@H](Cc2cccc(C(=N)N)c2)NS(=O)(=O)c2c(C(C)C)cc(C(C)C)cc2C(C)C)CC1 (10 µM)	0	0	0	0	0	0	0	0	0	0	0	0	0	0	0	0	0	0	0	0
O=Nc1c(-c2c(O)[nH]c3ccc(I)cc23)[nH]c2ccccc12 [5-Iodo-indirubin-3'-monoxime] (10 µM)	0	0	0	0	0	0	0	0	0	0	0	0	0	0	0	0	1	0	0	0
FC(F)c1nc2ccccc2n1-c1nc(N2CCOCC2)nc(N2CCOCC2)n1 (2 µM)	0	0	0	0	0	0	0	1	0	0	0	0	4	0	0	0	0	0	0	0
COc1cc(Nc2ncc(F)c(Nc3ccc4c(n3)N(COP(=O)(O)O)C(=O)C(C)(C)O4)n2)cc(OC)c1OC [Fostamatinib (disodium hexahydrate)] (10 µM)	0	0	0	0	0	0	0	0	0	0	0	0	1	0	0	1	0	0	0	0
Cn1cc(-c2ccc3nnc(Sc4ccc5ncccc5c4)n3n2)cn1 (10 µM)	0	0	0	0	0	0	0	0	0	0	0	0	0	0	0	0	0	0	0	0
O=C(Nc1cn[nH]c1-c1ccccn1)c1nn(C2CCNCC2)cc1Cl (10 µM)	0	0	0	0	0	0	0	0	0	0	0	0	0	0	3	0	0	1	0	0
NC(=O)c1nnc(N[C@@H]2CCCC[C@@H]2N)nc1Nc1cccc2cc[nH]c12 (10 µM)	0	0	0	0	0	0	0	0	0	0	0	0	0	0	2	0	0	0	0	0
O=C1NC(=O)/C(=C/c2ccc3nccnc3c2)S1 (10 µM)	0	0	0	0	0	1	0	0	0	0	0	0	0	0	0	0	0	0	0	0
CN1C(=O)N[C@H](Cc2c[nH]c3c(Cl)cccc23)C1=O [Necrostatin 2] (10 µM)	0	0	0	0	0	0	0	0	0	0	0	0	0	0	0	0	0	0	0	0
O=c1cc(CN2CCOCC2)occ1OCCCCCSc1ccnc2cc(C(F)(F)F)ccc12 (10 µM)	0	0	0	0	0	0	0	0	0	0	0	0	0	0	1	0	0	0	0	0
Nc1ncnc2c1c(-c1ccc(Oc3ccccc3)cc1)nn2C1CCCC1 (2.5 µM)	0	0	0	0	0	0	0	0	0	0	0	0	0	0	3	0	0	0	0	0
CN(C)CCSSCCNC(=O)C1CCN(C(=O)CSc2ccc(Cl)cc2)CC1 (10 µM)	0	0	0	0	0	0	0	0	0	0	0	0	0	0	0	0	0	0	0	0
COc1cc(Nc2ncc(F)c(Nc3ccc4c(n3)N(COP(=O)(O)O)C(=O)C(C)(C)O4)n2)cc(OC)c1OC [Fostamatinib Disodium] (10 µM)	0	0	0	0	0	0	0	0	0	0	0	0	1	0	0	0	0	0	0	0
Cc1cc(=O)oc2c(C=O)c(O)ccc12 (10 µM)	0	0	0	0	0	0	0	0	0	0	0	0	0	0	0	0	0	0	0	0
CN(C)CCCOc1ccc(-c2ccc3ncc4c(c3c2)n(C2CCOCC2)c(=O)n4C)cn1 (2 µM)	0	0	0	0	0	0	0	0	0	0	0	0	0	0	0	0	0	0	0	0
C=CC(=O)Nc1cccc(Nc2nc(Nc3ccc(NC4CN(CCF)C4)cc3OC)ncc2C(F)(F)F)c1 (2.5 µM)	0	0	0	0	0	0	0	0	0	0	0	0	0	0	0	0	0	0	0	0
Cc1ccc(OCCSc2ncccn2)c(Br)c1 [ZLN024 (hydrochloride)] (10 µM)	0	0	0	0	0	0	0	0	0	0	0	0	0	0	0	0	0	0	0	0
CCS(=O)(=O)Nc1ccc2[nH]c(O)c(C(=Nc3ccc(CN4CCCCC4)cc3)c3ccccc3)c2c1 [Hesperadin] (2.5 µM)	0	0	0	0	0	0	0	2	0	0	0	0	4	0	4	0	0	1	0	1
CN1CCC(c2cc(-c3ccncc3)c(-c3ccc(F)cc3)[nH]2)CC1 (10 µM)	0	0	0	0	0	0	0	0	0	0	0	0	0	0	0	0	0	0	0	0

Random excerpt: two entries already listed.
Structure (SMILES)	number of time points (CAMK2A)	number of time points (CAMK2G)	number of time points (CDK10)	number of time points (CDK2)	number of time points (CDK3)	number of time points (CDK5)	number of time points (CDK6)	number of time points (CHEK2)	number of time points (CSF1R)	number of time points (CSK)	number of time points (CSNK1A1)	number of time points (CSNK1D)	number of time points (DDR1)	number of time points (DYRK1B)	number of time points (DYRK2)	number of time points (EGFR)	number of time points (EGFR_G719S)	number of time points (EGFR_G719S_T790M)	number of time points (EGFR_L718V)	number of time points (EGFR_L858R)
CN1C(=O)N[C@H](Cc2c[nH]c3c(Cl)cccc23)C1=O [Necrostatin 2] (10 µM)	0	0	0	0	0	0	0	0	0	0	0	0	0	0	0	0	0	0	0	0
CN(C)CCCOc1ccc(-c2ccc3ncc4c(c3c2)n(C2CCOCC2)c(=O)n4C)cn1 (2 µM)	0	0	0	0	0	0	0	0	0	0	0	0	0	0	0	0	0	0	0	0
